In publication PMC8406295, “Highly Basic Clusters in the Herpes Simplex Virus 1 Nuclear Egress Complex Drive Membrane Budding by Inducing Lipid Ordering” (mBio, 2021):
Results are given in words; binding and its absence hold for the method and conditions named. Some results given as binding are weak or reduced against the parent protein; the word gives no strength.

Chains of the proteins cited; added tags and fusions are not shown. Lines headed by an entry give the natural chain unless they say otherwise; changes in a name come on top. A line that says so, or that is headed by a name, gives the form on record, which may keep a tag or linker. Residues count along the entry.
GST-tagged HSV-1 UL34 residues 1 to 220 (as in NEC220) (herpes simplex virus 1 (HSV-1)) (P10218, residues 1-220): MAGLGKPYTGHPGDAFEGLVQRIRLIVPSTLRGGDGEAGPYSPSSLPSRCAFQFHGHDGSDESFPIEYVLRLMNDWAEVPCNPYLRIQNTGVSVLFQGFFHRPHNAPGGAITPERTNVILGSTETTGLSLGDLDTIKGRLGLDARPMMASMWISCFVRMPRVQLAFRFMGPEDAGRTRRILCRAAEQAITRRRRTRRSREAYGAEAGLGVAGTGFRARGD
UL34^(174–194) peptide, unlabelled (herpes simplex virus 1 (HSV-1)) (P10218, residues 174-194): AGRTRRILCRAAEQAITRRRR
UniProt P10215: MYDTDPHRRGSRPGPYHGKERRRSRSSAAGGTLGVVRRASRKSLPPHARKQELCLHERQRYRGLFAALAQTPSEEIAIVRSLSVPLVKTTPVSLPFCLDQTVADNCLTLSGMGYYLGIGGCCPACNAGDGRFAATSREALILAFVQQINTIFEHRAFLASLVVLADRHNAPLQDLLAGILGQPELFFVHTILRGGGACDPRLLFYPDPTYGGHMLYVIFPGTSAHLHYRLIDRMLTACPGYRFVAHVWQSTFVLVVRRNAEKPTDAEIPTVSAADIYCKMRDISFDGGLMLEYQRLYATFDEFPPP

How the values were obtained:
[1] = target: GST-tagged HSV-1 UL34 residues 1 to 220 (as in NEC220) (herpes simplex virus 1 (HSV-1)) (UniProt P10218); test: co-purification (Ni-NTA Sepharose, then glutathione Sepharose, then cation exchange); UL31 and UL34 co-expressed in E. coli; lysate in 50 mM HEPES pH 7.5, 500 mM NaCl, 0.5 mM TCEP, 10% glycerol; 4°C
[2] = target: UL34^(174–194) peptide, unlabelled (herpes simplex virus 1 (HSV-1)) (UniProt P10218); test: condition: only in the absence of SUVs (25 μM each peptide); cross-linking; SM(PEG)6 at 50-fold molar excess, 30 min at room temperature in PBS, without SUVs; 50 μM peptide, or 25 μM each in mixtures; 16% Tris-tricine SDS-PAGE, Coomassie; both purified
[3] = target: UL34^(174–194) peptide, unlabelled (herpes simplex virus 1 (HSV-1)) (UniProt P10218); test: cross-linking; SM(PEG)6 at 50-fold molar excess, 30 min at room temperature in PBS, with 1 mM POPC/POPS/POPA 3:1:1 SUVs; 50 μM peptide, or 25 μM each in mixtures; 16% Tris-tricine SDS-PAGE, Coomassie; both purified
[4] = target: UL34^(174–194) peptide, unlabelled (herpes simplex virus 1 (HSV-1)) (UniProt P10218); test: cross-linking; SM(PEG)6 at 50-fold molar excess, 30 min at room temperature in PBS, without SUVs; 50 μM peptide, or 25 μM each in mixtures; 16% Tris-tricine SDS-PAGE, Coomassie; both purified
[5] = target: UL31^(41–50) peptide (herpes simplex virus 1 (HSV-1)); test: cross-linking; SM(PEG)6 at 50-fold molar excess, 30 min at room temperature in PBS, with 1 mM POPC/POPS/POPA 3:1:1 SUVs; 50 μM peptide, or 25 μM each in mixtures; 16% Tris-tricine SDS-PAGE, Coomassie; both purified
[6] = target: UL31^(41–50) peptide (herpes simplex virus 1 (HSV-1)); test: cross-linking; SM(PEG)6 at 50-fold molar excess, 30 min at room temperature in PBS, without SUVs; 50 μM peptide, or 25 μM each in mixtures; 16% Tris-tricine SDS-PAGE, Coomassie; both purified

With “His6-SUMO-UL31 (HSV-1 UL31, full length, as in NEC220) (from UniProt P10215 1-306)” the binding [1] was “binds”.

“UL31^(22–42) peptide (from UniProt P10215 22-42)” was tested, and the binding [2] was “no binding”.

“UL34^(174–194) peptide, unlabelled (from UniProt P10218 174-194)” was tested, and the binding [3] was “no binding (tested: 50 μM peptide)” and the binding [4] was “no binding (tested: 50 μM peptide)”.

B1: UL31^(41–50) peptide (peptide)
peptide: RKSLPPHARK
modifications: N-terminally acetylated; C-terminally amidated
With B1 the binding [2] was “no binding”, the binding [5] was “no binding (tested: 50 μM peptide)” and the binding [6] was “no binding (tested: 50 μM peptide)”.
